No constants are given. Whether binding was seen depends on the method and setting. Binding seen in cells or lysates may run through a third protein. Binding can be weak; no strength is given.
Target: T1, CAPERα (Coactivator of AP1 and Estrogen Receptor), endogenous human (human (endogenous in HEK293 and HFFs)) (UniProt Q14498)
T1 sequence: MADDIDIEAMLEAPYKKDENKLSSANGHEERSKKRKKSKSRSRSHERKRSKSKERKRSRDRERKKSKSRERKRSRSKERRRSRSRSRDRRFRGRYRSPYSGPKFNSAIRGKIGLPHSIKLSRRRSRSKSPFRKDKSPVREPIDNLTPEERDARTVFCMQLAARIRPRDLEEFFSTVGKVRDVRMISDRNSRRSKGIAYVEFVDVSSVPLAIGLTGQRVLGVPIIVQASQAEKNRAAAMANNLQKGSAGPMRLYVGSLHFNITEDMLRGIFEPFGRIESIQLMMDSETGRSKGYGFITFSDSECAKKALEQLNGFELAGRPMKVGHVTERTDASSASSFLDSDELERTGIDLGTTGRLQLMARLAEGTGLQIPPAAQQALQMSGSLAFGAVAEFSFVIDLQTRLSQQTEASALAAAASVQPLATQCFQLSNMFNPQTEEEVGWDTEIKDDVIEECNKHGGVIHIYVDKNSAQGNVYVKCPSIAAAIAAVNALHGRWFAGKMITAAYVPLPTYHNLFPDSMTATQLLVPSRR
Assay: co-IP; HEK293 cells transfected with anti-TBX3 shRNA and expressing untagged mouse Tbx3 proteins; IP with anti-CAPERα (endogenous), immunoblot with anti-Tbx3

binding: binds
Substance: mouse Tbx3 N227D (DNA binding domain point mutant; N277D in the methods) (from UniProt P70324-2)
